Assay [1] has as its target recombinant cynomolgus TREM2 ECD (cynomolgus). Description: SPR (Biacore). On the technique in general: In SPR one partner is held on a chip, and binding of the other changes the refractive index at the surface.
Assay [2] concerns the target T1, sTREM2 in human CSF (human) (UniProt Q9NZC2).
T1 sequence: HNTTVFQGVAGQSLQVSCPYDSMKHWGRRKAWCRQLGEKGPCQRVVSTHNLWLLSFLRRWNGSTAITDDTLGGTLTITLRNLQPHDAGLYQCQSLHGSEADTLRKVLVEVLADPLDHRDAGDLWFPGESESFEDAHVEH
As to the kind of experiment: MSD assay on CSF.

Assay [3] deals with sTREM2 in cynomolgus CSF (cynomolgus monkey). Description: MSD assay on CSF.
Assay [4] has as its target T2, sTREM2 in plasma of hTREM2 knock in mice (human) (UniProt Q9NZC2).
T2 sequence (soluble receptor ectodomain, looked up): T1 sequence
Description: MSD immunoassay of plasma of huTrem2 KI/KI mice 24 h after 100 mg/kg i.v. antibody: capture by anti-TREM2 antibody, detection by sulfo-tagged anti-human antibody, normalised to the pre-dose baseline.

We go through 5 molecules from patent publication US20220073609A1 (DENALI THERAPEUTICS, published 2022).

Changes are numbered by the printed parent chain. These are yes or no findings as the source states them, for the method shown. Some results given as binding are weak or reduced against the parent protein; the word gives no strength. No end group written: not given here.

B1: CL0020188-4 (antibody, V domains shown)
VH: EVQLVESGGGLVQPGGSLRLSCAGSGFTFTDFYMSWVRQAPGKGPEWLSVIRNKANGYTAGYNPSVKGRFTISRDNSKNTLYLQMNSLRAEDTAVYYCARLTYGFDYWGQGTLVTVSS
VL: DIVMTQTPLSLPVTPGEPASISCQSSKSLLHSTGKTYLNWYLQKPGQSPQLLIYWMSTRASGVPDRFSGSGSGTDFTLKISRVEAEDVGVYYCQQFLEYPFTFGQGTKVEIK
notes: Humanized variant of CL0020188
Turning to B1, the binding result in assay [1], in assay [2] and in assay [3] was “binds” each time.

B2: CL0020188-7 (antibody, V domains shown)
VH: B1 VH with G24A, P45L, L48V, G57A
VL: B1 VL
notes: as for B1
With B2, the binding entry in assay [1], in assay [2] and in assay [3] was “binds” in each case.

B3: CL0020123-5 (antibody, V domains shown)
VH: QVQLVQSGAEVKKPGASVKVSCKASGFSIEDFYIHWVRQAPGQGLEWMGWIDPEQGESKYAPKFQGRATITADTSTSTAYMELSSLRSEDTAVYYCHADHGNYGSTMDYWGQGTLVTVSS
VL: DIQMTQSPSSLSASVGDRVTITCHASQHINVWLSWYQQKPGKAPKLLIYKASNLHTGVPSRFSGSGSGTDFTLTISSLQPEDFATYYCQQGQTYPRTFGQGTKVEIK
notes: Humanized variant of CL0020123
For B3, the binding entry in assay [2] was “binds”.

B4: CL0020123-7 (antibody, V domains shown)
VH: B3 VH with Q55N, A68V
VL: B3 VL
notes: as for B3
Regarding B4, the binding result in assay [2] is on record as “binds”.

B5: CL0020188 (antibody, V domains shown)
VH: EVKLLDSGGGLVQAGGSLRLSCAGSGFTFTDFYMSWIRQPPGKAPEWLGVIRNKANGYTAGYNPSVKGRFTISRDNTQNILYLQMNTLRAEDTAIYYCARLTYGFDYWGQGVMVTVSS
VL: DIVMTQGALPNPVPSGESASITCQSSKSLLHSNGKTYLNWYLQRPGQSPQLLIYWMSTRASGVSDRFSGSGSGTDFTLKISSVEAEDVGVYYCQQFLEYPFTFGSGTKLEIK
notes: also called Clone CL0020188
Turning to B5, in assay [4], the binding result is recorded as “binds”.
